Read-outs that look alike come from different tables or passages of the source. Not every detail of the peptide structures is certain; ends, links or a residue may be inferred. Ends that are not written are not given here.
Tests used:
HIV-1MN = experiment: Syncytia formation blockage (chronically infected cells incubated with MBPCs, uninfected Molt-4 cells added); format: cell-based; parameters: key: -: The presence of syncytia is indicated by + signs, allocated in approximate proportion to the quantities counted.; The presence of syncytia is indicated by + signs, allocated in approximate proportion to the quantities counted.; ++: The presence of syncytia is indicated by + signs, allocated in approximate proportion to the quantities counted.; +++: The presence of syncytia is indicated by + signs, allocated in approximate proportion to the quantities counted.; ++++: The presence of syncytia is indicated by + signs, allocated in approximate proportion to the quantities counted; settings: counted after 18 hours
HIV = experiment: Inhibition of HIV infection of CD4+ cells and of HIV induced syncytia formation (text summary, strains not separated); format: cell-based, HIV-1 and HIV-2
HIV-2Rod = experiment: Syncytia formation blockage (chronically infected cells incubated with MBPCs, uninfected Molt-4 cells added); format: cell-based; parameters: key: -: The presence of syncytia is indicated by + signs, allocated in approximate proportion to the quantities counted.; The presence of syncytia is indicated by + signs, allocated in approximate proportion to the quantities counted.; ++: The presence of syncytia is indicated by + signs, allocated in approximate proportion to the quantities counted.; +++: The presence of syncytia is indicated by + signs, allocated in approximate proportion to the quantities counted.; ++++: The presence of syncytia is indicated by + signs, allocated in approximate proportion to the quantities counted; settings: counted after 18 hours
HIV-1Lai = experiment: as above; format: cell-based; parameters: key: -: The presence of syncytia is indicated by + signs, allocated in approximate proportion to the quantities counted.; The presence of syncytia is indicated by + signs, allocated in approximate proportion to the quantities counted.; ++: The presence of syncytia is indicated by + signs, allocated in approximate proportion to the quantities counted.; +++: The presence of syncytia is indicated by + signs, allocated in approximate proportion to the quantities counted.; ++++: The presence of syncytia is indicated by + signs, allocated in approximate proportion to the quantities counted; settings: counted after 18 hours
HIV-1(89.6) = experiment: Infection of and syncytia formation in human primary macrophages; format: cell-based; settings: MBPC 5x10^-5M; 10,000 TCID50; 4 days post-infection
Source text: Mononuclear cells were isolated from leukophoresis units enriched for monocytes by Ficoll-Hypaque density separation. Macrophages were purified by adherence to plastic in RPMI 1640 supplemented with 10% fetal calf serum and 5% human AB serum. […] After thorough washing, the cells were fed again with medium and analyzed for HIV-1 p24^gag production and syncytia formation 4 days post-infection.

Molecule: GPGRAF [Mono.3, GPGRAF, reference compound]
- Syncytia formation (HIV-1MN; MBPC Conc. 10^-5M): ++++
- Syncytia formation (HIV-1MN; MBPC Conc. 10^-6M): ++++
- Syncytia formation (HIV-1MN; MBPC Conc. 10^-7M): ++++
- in vitro inhibiting effect on syncytia formation induced by HIV (in words) (HIV): wholly inactive
- in vitro inhibiting effect on syncytia formation induced by HIV (in words) (HIV; higher concentration of 10^-4M): wholly inactive
- Syncytia formation (HIV-2Rod; MBPC Conc. 10^-5M): ++++
- Syncytia formation (HIV-2Rod; MBPC Conc. 10^-6M): ++++
- Syncytia formation (HIV-2Rod; MBPC Conc. 10^-7M): ++++
- Syncytia formation (HIV-1Lai; MBPC Conc. 10^-5M): ++++
- Syncytia formation (HIV-1Lai; MBPC Conc. 10^-6M): ++++
- Syncytia formation (HIV-1Lai; MBPC Conc. 10^-7M): ++++

Molecule: C[C@H](NC(=O)[C@@H](CCCNC(=N)N)NC(=O)CNC(=O)[C@@H]1CCCN1C(=O)CN)C(=O)N[C@@H](Cc1ccccc1)C(=O)NCCCC[C@H](NC(=O)[C@H](Cc1ccccc1)NC(=O)[C@H](C)NC(=O)[C@@H](CCCNC(=N)N)NC(=O)CNC(=O)[C@@H]1CCCN1C(=O)CN)C(=O)NCCCC[C@H](NC(=O)[C@H](CCCCNC(=O)[C@H](Cc1ccccc1)NC(=O)[C@H](C)NC(=O)[C@@H](CCCNC(=N)N)NC(=O)CNC(=O)[C@@H]1CCCN1C(=O)CN)NC(=O)[C@H](Cc1ccccc1)NC(=O)[C@H](C)NC(=O)[C@@H](CCCNC(=N)N)NC(=O)CNC(=O)[C@@H]1CCCN1C(=O)CN)C(=O)NCCCC[C@H](NC(=O)[C@H](CCCCNC(=O)[C@H](CCCCNC(=O)[C@H](Cc1ccccc1)NC(=O)[C@H](C)NC(=O)[C@@H](CCCNC(=N)N)NC(=O)CNC(=O)[C@@H]1CCCN1C(=O)CN)NC(=O)[C@H](Cc1ccccc1)NC(=O)[C@H](C)NC(=O)[C@@H](CCCNC(=N)N)NC(=O)CNC(=O)[C@@H]1CCCN1C(=O)CN)NC(=O)[C@H](CCCCNC(=O)[C@H](Cc1ccccc1)NC(=O)[C@H](C)NC(=O)[C@@H](CCCNC(=N)N)NC(=O)CNC(=O)[C@@H]1CCCN1C(=O)CN)NC(=O)[C@H](Cc1ccccc1)NC(=O)[C@H](C)NC(=O)[C@@H](CCCNC(=N)N)NC(=O)CNC(=O)[C@@H]1CCCN1C(=O)CN)C(=O)NCCC(=O)O [[GPG(R)DAF]8-MLC]
- infection of macrophages (in words) (HIV-1(89.6)): significantly less active than [GPGRAF]8-MLC

— patent EP0719281B1, “MULTIPLE BRANCH PEPTIDE CONSTRUCTIONS FOR USE AGAINST HIV” (priority 1993, dated 1995)
